Results are given in words; binding and its absence hold for the method and conditions named. For part of these data: Binding seen in cells or lysates may run through a third protein. Some entries that bind do so weakly or less than the wild type. For part of these data: Where a sequence is shown, tags or fusion partners need not be part of it.
Legend:
[1] = target: T1, HA-ANLN (Anillin, wild type) (human) (UniProt Q9NQW6); test: co-IP
T1 sequence: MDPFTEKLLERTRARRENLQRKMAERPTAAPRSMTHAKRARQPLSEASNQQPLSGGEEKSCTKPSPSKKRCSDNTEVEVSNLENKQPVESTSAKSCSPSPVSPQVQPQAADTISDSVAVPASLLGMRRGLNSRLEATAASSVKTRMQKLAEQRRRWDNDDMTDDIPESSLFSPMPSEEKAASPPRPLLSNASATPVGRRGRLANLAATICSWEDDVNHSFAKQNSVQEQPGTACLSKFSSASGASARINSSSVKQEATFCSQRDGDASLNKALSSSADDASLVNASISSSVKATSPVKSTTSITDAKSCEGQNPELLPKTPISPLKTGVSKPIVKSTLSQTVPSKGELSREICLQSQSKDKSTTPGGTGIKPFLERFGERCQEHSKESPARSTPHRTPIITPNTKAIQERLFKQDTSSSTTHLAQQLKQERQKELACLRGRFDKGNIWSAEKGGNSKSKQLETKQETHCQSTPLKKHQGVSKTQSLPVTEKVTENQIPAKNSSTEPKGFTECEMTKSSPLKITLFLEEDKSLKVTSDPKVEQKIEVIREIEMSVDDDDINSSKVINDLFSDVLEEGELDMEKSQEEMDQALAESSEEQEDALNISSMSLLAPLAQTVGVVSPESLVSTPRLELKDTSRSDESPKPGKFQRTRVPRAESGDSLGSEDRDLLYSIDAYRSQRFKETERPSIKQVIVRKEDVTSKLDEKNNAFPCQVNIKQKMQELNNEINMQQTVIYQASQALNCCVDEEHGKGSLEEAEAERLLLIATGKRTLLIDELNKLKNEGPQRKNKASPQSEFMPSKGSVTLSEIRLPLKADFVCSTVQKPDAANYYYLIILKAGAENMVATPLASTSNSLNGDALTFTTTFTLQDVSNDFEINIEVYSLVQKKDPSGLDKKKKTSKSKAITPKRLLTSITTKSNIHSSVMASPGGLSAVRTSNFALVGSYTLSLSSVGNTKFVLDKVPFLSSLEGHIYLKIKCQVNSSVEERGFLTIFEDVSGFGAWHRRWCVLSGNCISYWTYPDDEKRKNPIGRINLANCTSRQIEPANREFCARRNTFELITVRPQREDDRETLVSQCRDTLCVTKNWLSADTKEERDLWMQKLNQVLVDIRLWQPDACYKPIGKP

Protein sequences, listed by entry. Tags and fused reporters are not part of them.
UniProt P12004: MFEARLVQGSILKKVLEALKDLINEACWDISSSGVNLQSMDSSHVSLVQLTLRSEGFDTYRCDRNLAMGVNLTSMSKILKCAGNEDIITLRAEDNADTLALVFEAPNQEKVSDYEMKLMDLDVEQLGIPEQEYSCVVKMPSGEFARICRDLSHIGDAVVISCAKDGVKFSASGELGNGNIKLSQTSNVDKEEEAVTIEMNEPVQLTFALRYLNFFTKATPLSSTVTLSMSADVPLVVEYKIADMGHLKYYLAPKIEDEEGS

[2] = target: T2, ANLN N-terminal 1-454 region (human) (UniProt Q9NQW6); test: co-IP
T2 sequence: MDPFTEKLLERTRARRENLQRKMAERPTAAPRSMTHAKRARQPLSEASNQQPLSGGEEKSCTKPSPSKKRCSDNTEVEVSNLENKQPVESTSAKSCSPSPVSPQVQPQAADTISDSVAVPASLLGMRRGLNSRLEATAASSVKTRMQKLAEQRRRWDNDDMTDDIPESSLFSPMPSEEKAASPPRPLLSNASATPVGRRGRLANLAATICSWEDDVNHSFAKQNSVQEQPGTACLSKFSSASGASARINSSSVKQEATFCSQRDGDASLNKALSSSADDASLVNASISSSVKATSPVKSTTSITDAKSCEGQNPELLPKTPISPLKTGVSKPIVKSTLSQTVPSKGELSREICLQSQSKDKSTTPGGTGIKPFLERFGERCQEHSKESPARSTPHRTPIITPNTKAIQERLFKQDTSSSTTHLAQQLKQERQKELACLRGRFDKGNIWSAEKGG

[3] = target: T3, ANLN C-terminal 454-1124 region (human) (UniProt Q9NQW6); test: co-IP
T3 sequence: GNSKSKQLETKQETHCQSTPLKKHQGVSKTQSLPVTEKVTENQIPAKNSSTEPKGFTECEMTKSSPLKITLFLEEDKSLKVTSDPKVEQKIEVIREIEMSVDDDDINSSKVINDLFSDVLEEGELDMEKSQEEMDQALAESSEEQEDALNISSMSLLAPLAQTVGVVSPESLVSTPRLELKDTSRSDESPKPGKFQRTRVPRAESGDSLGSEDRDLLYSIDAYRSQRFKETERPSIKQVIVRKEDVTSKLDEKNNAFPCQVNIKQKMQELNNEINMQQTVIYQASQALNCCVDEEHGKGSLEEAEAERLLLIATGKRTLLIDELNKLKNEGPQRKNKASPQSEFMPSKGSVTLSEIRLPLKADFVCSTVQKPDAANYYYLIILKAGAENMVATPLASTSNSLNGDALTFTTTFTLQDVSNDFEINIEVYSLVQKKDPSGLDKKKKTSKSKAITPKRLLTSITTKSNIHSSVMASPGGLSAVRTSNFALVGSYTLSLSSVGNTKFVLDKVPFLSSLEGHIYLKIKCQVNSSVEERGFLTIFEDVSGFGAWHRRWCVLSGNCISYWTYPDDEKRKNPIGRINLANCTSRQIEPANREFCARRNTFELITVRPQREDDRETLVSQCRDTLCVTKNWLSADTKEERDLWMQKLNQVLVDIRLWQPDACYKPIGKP

[4] = target: T4, endogenous ANLN (Anillin) (human (endogenous in KYSE150 and KYSE510)) (UniProt Q9NQW6); test: co-IP
T4 sequence: T1 sequence

[5] = target: T4, endogenous ANLN (Anillin) (human (endogenous in KYSE150 and KYSE510)); test: proximity ligation
His labeled ANLN (human) = target: T5, His labeled ANLN (human) (UniProt Q9NQW6); test: pull-down
T5 sequence: T1 sequence

Flag-PCNA (from UniProt P12004 1-261)
binding [1]: binds | binding [2]: binds | binding [3]: no binding

endogenous PCNA (proliferating cell nuclear antigen) (from UniProt P12004 1-261)
binding [4]: binds | binding [5]: binds

PCNA without label (from UniProt P12004 1-261)
binding (His labeled ANLN (human)): binds
